Results: PubChem BioAssay AID720540 (National Center for Advancing Translational Sciences (NCATS), 2013)
The whole screen tested about 1,300 compounds, of which about 460 (35%) were called active. The shares of active, inactive and inconclusive entries below differ from those in the screen. Calls come from the whole dose curve; as a rule, active = well fitted inhibition curve with a large enough effect; inconclusive = small, poorly fitted or top-dose-only effect; inactive = flat fitted curve, though single readings scatter. Potencies of inconclusive entries are doubtful fits and often do not repeat. A structure can be active in one record and inactive in another.

Amino acid sequences for entries named in this document (tags omitted). A change or cut given only in a name is not applied to a line headed by its entry.
UniProt O00167: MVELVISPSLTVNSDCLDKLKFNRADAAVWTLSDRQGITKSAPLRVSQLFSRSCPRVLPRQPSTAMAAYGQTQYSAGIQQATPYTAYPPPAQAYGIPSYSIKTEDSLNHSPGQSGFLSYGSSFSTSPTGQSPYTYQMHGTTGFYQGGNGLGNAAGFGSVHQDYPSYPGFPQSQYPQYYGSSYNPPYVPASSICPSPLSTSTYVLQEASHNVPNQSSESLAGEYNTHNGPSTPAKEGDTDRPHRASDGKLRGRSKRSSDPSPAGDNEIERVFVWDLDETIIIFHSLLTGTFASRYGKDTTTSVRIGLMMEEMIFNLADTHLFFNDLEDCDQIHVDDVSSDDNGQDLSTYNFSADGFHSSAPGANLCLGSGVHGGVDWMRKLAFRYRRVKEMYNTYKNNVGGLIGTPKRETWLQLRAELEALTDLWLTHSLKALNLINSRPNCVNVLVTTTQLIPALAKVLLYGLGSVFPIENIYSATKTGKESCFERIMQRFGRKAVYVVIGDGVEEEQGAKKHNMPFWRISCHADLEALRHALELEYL

Biological target: Protein phosphatase EYA2 (Homo sapiens) (UniProt O00167)
Experiment: qHTS for Inhibitors of the Phosphatase Activity of Eya2: Confirmatory Assay for Cherry-picked Compounds; note: nearly all actives have a fitted effect of over 65% in size
Details: purified EYA2 phosphatase activity, qHTS confirmation; series mostly up to 46.1 µM
Excerpt: The Eya protein family is an essential co-activator of the Six1 transcription factor. Six1 is a developmental gene that is abnormally re-expressed in a large percentage of breast cancers. This over-expression plays a causal role in the initiation and metastatic development of breast cancers. The Eya family of protein is also found to contain a unique HAD phosphatase domain with protein tyrosine phosphatase activity which can potentially play a role in Six1-mediated breast tumorigenesis. Recently, Eya2 is found to dephosphorylate the histone variant H2AX and direct cells towards DNA repair instead of apoptosis in the event of DNA damage.
A 1536 well format, fluorescence based qHTS assay was developed and used to target the phosphatase activity of Eya2 (AID 488837). Inhibitors found against Eya2 could serve as potential therapeutic tools to inhibit Six1-mediated breast tumorigenesis and to increase the efficiency of radiation and certain chemo therapy. This assay assessed the activity of the primary screen cherry-picked compounds against Eya2. Inhibition is the desired outcome for this assay.
NIH Chemical Genomics Center [NCGC]
NIH Molecular Libraries Probe Centers Network [MLPCN]
Assay Submitter (PI): Rui Zhao, University of Colorado Denver
Eya2 enzyme and 3-O-methyl-fluorescein phosphate (OMFP) substrate working solutions were reconstituted in the buffer reagent consist of 50 mM HEPES pH 7.5, 50 mM NaCl, […], 0.05% BSA and 1 mM DTT. One and a half microliter of 0.2 uM Eya2 working solution was dispensed in a 1536 well Greiner plate (black, medium bind). Twenty-three nanoliter of test compounds and control compound EGTA was transferred to the assay plate using the Kalypsys robotic system equipped with a 1536 pin head. The plate was incubated at room temperature for 10 minutes. One and a half microliter of the 50 uM the OMFP substrate was then dispensed to the assay plate and incubated at room temperature for additional 10 min. The fluorescence signal was read using the PerkinElmer ViewLux plate reader using a 485 nm excitation and 525 nm emission filters. The data was normalized to the positive control for maximum inhibition and DMSO treated wells as negative control.
Potency is the fitted concentration of half-maximal effect.

| SMILES | Potency |
| --- | --- |
| COC(=O)C1=C(c2cccc(OCc3ccccc3)c2)C[C@@H]2CC[C@H]1N2C(=O)NCCCc1ccccc1 | inactive |
| CC(N)[C@H](O)c1ccc(O)c(O)c1 (stereo not given in full) | inactive |
| O=C1NCc2c1c1c3ccccc3[nH]c1c1[nH]c3ccccc3c21 | inconclusive: 1.9 µM [inhibitor, partial curve, poor fit] |
| O=C1NC(=O)N(c2ccc(Cl)cc2)C(=O)/C1=C\c1ccc(Sc2nc3ccccc3[nH]2)o1 | active: 13.5 µM |
| COc1cc(CNc2ccc3[nH]c(=O)[nH]c3c2)ccc1OCc1ccccc1C | inconclusive: 19 µM [inhibitor, partial curve] |
| NCCc1cc(O)c(O)cc1O | inconclusive: 21.3 µM [inhibitor, partial curve] |
| Cc1c(C(=O)c2cccc3ccccc23)c2cccc3c2n1[C@H](CN1CCOCC1)CO3 | inconclusive: 19 µM [inhibitor, partial curve] |
| CCOc1cccc(=NC2CCCCC2)c2c(C)[nH]c(C)c12 | inconclusive: 19 µM [inhibitor, partial curve] |
| NCCNc1ccc([N+](=O)[O-])c2cccnc12 | inconclusive: 19 µM [inhibitor, single point] |
| Cc1c(C)c2c(OCC(=O)N[C@@H](C)C(=O)O)cc3c(c2oc1=O)CCC(C)(C)O3 | inconclusive: 15.1 µM [inhibitor, partial curve] |
| COc1cccc2c1C(=O)c1c(O)c3c(c(O)c1C2=O)C[C@@](O)(C(=O)CO)C[C@@H]3O[C@H]1C[C@H](N)[C@H](OC2CCCCO2)[C@H](C)O1 (stereo not given in full) | inconclusive: 8.49 µM [inhibitor, partial curve] |
| CN(C)c1ccc(C=C2C=CC=C2)cc1 | inactive |
| C[C@H]1CCC[C@H](O)CCCCCc2cc(O)cc(O)c2C(=O)O1 | inactive |
| NC(Cc1cc(O)c(O)cc1O)C(=O)O (stereo not given) | active: 2.39 µM |
| CN(C)c1ccc(N=Nc2ccccc2)cc1 | active: 5.36 µM |
| COc1ccccc1N1CCN(CCc2c[nH]c3cc4c(cc23)OCO4)CC1 | active: 19 µM |
| COC(=O)C1=C(C)NC(C)=C(C(=O)OC)C1c1ccccc1[N+](=O)[O-] | inconclusive: 10.7 µM [inhibitor, partial curve] |
| CCC(COC(=O)c1cc(OC)c(OC)c(OC)c1)(c1ccccc1)N(C)C (stereo not given) | inconclusive: 19 µM [inhibitor, partial curve] |
| Cc1nc2ccccc2c(=O)n1-c1ccc(Cl)cc1[N+](=O)[O-] | inactive |
| CCCCCCCSc1cc(OC)c(CCN(C)C)cc1OC | inconclusive: 15.1 µM [inhibitor, partial curve] |

Taken from the listing for reference:

| SMILES | Potency |
| --- | --- |
| COC(=O)C1=C(c2cccc(OCc3ccccc3)c2)C[C@@H]2CC[C@H]1N2C(=O)NCCCc1ccccc1 | inactive |
| CC(N)[C@H](O)c1ccc(O)c(O)c1 (stereo not given in full) | inactive |

(listing goes on)

| SMILES | Potency |
| --- | --- |
| Cc1cc(/C=C2\C(=O)NC(=O)N(c3ccc(Br)cc3)C2=O)c(C)n1-c1cc(C(=O)O)cc(C(=O)O)c1 | inconclusive: 21.3 µM [inhibitor, partial curve] |
| O=C1NC(=O)N(c2ccc(Br)cc2)C(=O)/C1=C/c1ccsc1 | inconclusive: 10.7 µM [inhibitor, partial curve] |
| COC1C(O)C(C)OC(OC2C(Oc3cccc4c(O)c5c(=O)oc6ccc(C)c7c(=O)oc(c34)c5c67)OC(C)C(O)C2O)C1O (stereo not given) | inactive |
| O=C1NC(=S)NC(=O)C1=Cc1ccc(Br)s1 | inconclusive: 8.49 µM [inhibitor, partial curve] |
| CCCCCSc1cc(OC)c(CCNC)cc1OC | inconclusive: 12 µM [inhibitor, partial curve] |
| CCOc1cc2c(cc1OCC)-n1cccc1C(c1ccc(F)cc1)NC2 (stereo not given) | inconclusive: 21.3 µM [inhibitor, single point] |
| O=C(Oc1cncc(Cl)c1)c1sccc1Cl | inconclusive: 16.9 µM [inhibitor, partial curve] |
| O=C(O)CCCOc1ccc(Cl)cc1Cl | inactive |
| Cc1ccc(/C=C2\C(=O)NC(=S)N(c3cccc(F)c3)C2=O)o1 | inconclusive: 21.3 µM [inhibitor, partial curve] |
| CCOc1ccc(N2C(=O)/C(=C/c3ccc(C)o3)C(=O)NC2=S)cc1 | inconclusive: 19 µM [inhibitor, partial curve] |
| Cc1ccc2c(C)c3ccc4ccccc4c3c[n+]2c1 | inconclusive: 15.1 µM [inhibitor, partial curve] |
| Oc1ccc(Cl)c(Cl)c1Cl | inconclusive: 15.1 µM [inhibitor, partial curve] |
| Cc1cc(-c2cc(C)c(N)c(C)c2)cc(C)c1N | inconclusive: 21.3 µM [inhibitor, partial curve] |
| COc1ccc(-c2cc(=NCCC(=O)O)c3cc(C)ccc3o2)cc1 | active: 16.9 µM |
| N[C@@H](Cc1cc(I)c(O)c(I)c1)C(=O)O | active: 9.53 µM |
| CCCCCSc1cc(OC)c(CCN)cc1OC | inconclusive: 9.53 µM [inhibitor, partial curve] |
| O=C(Cc1ccccc1)c1ccccn1 | active: 10.7 µM |
| CN(C)S(=O)(=O)c1ccc(C(=O)NNc2nc(-c3ccccc3)c3cc(Br)ccc3n2)cc1 | active: 8.49 µM |
| C=CCN1C(=O)/C(=C/c2ccc(Br)s2)C(=O)NC1=S | inconclusive: 9.53 µM [inhibitor, partial curve] |
| CN1CC(C(=O)c2ccc(Cl)cc2)C(c2ccc(N(C)C)cc2)C1 (stereo not given) | inconclusive: 15.1 µM [inhibitor, partial curve] |
